# The other results are listed elsewhere or left out.
# Amino acid sequences for entries named in this document (tags omitted). A change or cut given only in a name is not applied to a line headed by its entry.
# UniProt Q9H2Y7: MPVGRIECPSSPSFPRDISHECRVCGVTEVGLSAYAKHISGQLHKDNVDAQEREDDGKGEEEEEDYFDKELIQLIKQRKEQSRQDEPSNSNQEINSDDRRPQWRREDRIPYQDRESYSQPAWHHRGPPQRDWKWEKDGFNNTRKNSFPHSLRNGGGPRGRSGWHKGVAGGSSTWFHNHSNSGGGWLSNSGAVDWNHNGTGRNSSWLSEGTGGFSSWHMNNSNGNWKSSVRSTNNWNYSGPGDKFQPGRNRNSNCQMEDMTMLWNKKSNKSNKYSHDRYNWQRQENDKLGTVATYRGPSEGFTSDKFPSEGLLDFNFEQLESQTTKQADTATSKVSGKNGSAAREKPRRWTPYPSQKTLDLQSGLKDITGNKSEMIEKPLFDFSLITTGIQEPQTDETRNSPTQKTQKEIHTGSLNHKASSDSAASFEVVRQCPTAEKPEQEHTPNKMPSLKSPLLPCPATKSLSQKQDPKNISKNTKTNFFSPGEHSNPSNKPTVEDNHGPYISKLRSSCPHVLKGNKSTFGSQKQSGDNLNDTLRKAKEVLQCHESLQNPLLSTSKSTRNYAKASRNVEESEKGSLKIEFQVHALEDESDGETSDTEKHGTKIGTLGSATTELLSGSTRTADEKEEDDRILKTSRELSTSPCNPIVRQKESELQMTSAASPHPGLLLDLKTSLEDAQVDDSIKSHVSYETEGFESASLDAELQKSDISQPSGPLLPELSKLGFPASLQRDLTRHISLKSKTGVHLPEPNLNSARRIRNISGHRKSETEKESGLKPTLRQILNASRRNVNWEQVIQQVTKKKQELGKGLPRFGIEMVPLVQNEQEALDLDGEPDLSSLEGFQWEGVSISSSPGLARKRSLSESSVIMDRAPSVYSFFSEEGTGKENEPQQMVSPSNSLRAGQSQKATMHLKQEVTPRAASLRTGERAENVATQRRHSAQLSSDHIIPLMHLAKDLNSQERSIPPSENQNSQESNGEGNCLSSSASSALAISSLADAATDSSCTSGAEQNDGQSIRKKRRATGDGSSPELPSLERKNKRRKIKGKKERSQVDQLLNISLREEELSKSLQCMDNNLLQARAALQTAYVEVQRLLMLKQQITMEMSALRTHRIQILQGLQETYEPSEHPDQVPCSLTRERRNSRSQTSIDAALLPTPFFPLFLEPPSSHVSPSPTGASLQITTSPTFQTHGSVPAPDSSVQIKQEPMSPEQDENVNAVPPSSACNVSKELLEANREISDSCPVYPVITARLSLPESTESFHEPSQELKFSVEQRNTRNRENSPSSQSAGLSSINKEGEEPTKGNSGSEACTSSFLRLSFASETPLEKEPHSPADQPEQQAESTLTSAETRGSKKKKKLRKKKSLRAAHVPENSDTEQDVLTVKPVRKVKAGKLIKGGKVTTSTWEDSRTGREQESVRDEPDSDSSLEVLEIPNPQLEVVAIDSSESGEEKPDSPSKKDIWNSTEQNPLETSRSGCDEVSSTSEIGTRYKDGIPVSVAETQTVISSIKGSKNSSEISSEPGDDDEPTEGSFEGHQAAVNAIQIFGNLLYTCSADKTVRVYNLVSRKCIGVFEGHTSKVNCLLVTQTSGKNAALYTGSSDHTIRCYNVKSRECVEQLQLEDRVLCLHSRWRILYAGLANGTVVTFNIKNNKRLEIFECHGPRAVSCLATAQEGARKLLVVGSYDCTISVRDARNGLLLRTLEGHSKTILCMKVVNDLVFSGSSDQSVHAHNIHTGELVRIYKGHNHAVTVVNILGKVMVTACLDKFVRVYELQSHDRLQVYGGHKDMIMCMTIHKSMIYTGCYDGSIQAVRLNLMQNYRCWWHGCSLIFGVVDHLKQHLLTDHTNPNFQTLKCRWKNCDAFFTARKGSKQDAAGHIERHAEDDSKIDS
# Target: ZNF106_Q9H2Y7-2_7_CILCHIVYSSK (UniProt Q9H2Y7)
# Test: probe-labelled cysteine peptide fold change vs DMSO (competition) (log2 fold change); higher = less target engagement (more negative = stronger competition)
# Conditions: THP-1, incubation time: 4 h
# 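Further: competitive chemoproteomic profiling in live THP-1 cells with an iodoacetamide desthiobiotin (IA-DTB) probe, comparing probe-labelled peptide intensities in compound-treated cells against DMSO-treated controls.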
structure (smiles),measurement,setting,value
CC1Cc2ccccc2N1C(=O)C1CCCN(C(=O)CCl)C1 (mixture of isomers) [TRIM25 ligand 11 (diastereomer mixture)],probe-labelled cysteine peptide fold change,10 µM,-0.145
same,probe-labelled cysteine peptide fold change,50 µM,0.00734

# — the supplement of paper PMC12067093, “Discovery and optimisation of a covalent ligand for TRIM25 and its application to targeted protein ubiquitination” (Chemical Science, 2025)
